Data source: PubChem BioAssay AID504791 (Drosophila RNAi Screening Center, 2011)
In all, the deposit lists about 23,000 reagents; below is an unselected part of those that have a named target and a result. Over the whole deposit, 199 (0.86%) are marked active. 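Plate-scaled ratios behind the calls are not deposited; printed light signals are raw; many rows marked increased or decreased are still called inactive.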 A plus sign joins genes that one reagent is predicted to hit. Not given: the direction of the score.

Aim: 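Factors in Argonaute-based small RNA production and activity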 (primary screen)
Cells: Drosophila S2-derived reporter cells
Knock-down reagent: long dsRNA against Drosophila genes, about 150-250 ng dsRNA per well (siRNA assay); about 80-120 ng (miRNA assay)
Time to read-out: about 5 days (siRNA assay); about 4 days (miRNA assay)
Conditions: copper sulfate induction of reporters: 25 µM (siRNA assay); 200 mM stated (miRNA assay), 1-2 days before reading
Measurement: 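Per-well ratio of Renilla over firefly light, expressed relative to that plate's average ratio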
Hit rule: 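a well was a first-pass pick when its plate-scaled ratio rose above 1.5 (siRNA assay) or 1.6 (miRNA assay), or dropped below 0.6; a gene counted only if two separate dsRNAs agreed on retest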

| target gene | dsRNA | stable siRNA reporter change | miRNA reporter change | stable assay Renilla, run 1 (luminescence) | stable assay firefly, run 1 (luminescence) | outcome |
| --- | --- | --- | --- | --- | --- | --- |
| CG3955 (GeneID 36438) | DRSC06859 | – | – | 8238 | 5.59e5 | inactive |
| CG14818 (GeneID 31147) | DRSC18548 | – | – | 5707 | 3.36e5 | inactive |
| CG13679 (GeneID 38919) | DRSC10037 | – | – | 5035 | 3.87e5 | inactive |
| CG13679 (GeneID 38919) | DRSC22749 | – | – | 3407 | 3.69e5 | inactive |
| eIF6 (GeneID 37776) | DRSC04674 | – | – | 80866 | 1.07e6 | inactive |
| CG31678 (GeneID 35327) | DRSC02618 | – | – | 10068 | 7.83e5 | inactive |
| CG31678 (GeneID 35327) | DRSC02619 | – | – | 6430 | 4.19e5 | inactive |
| sna (GeneID 34908) | DRSC03613 | – | – | 7183 | 3.56e5 | inactive |
| CG8236 (GeneID 41047) | DRSC16399 | – | – | 7663 | 5.60e5 | inactive |
| twit (GeneID 35353) | DRSC03210 | – | – | 20925 | 5.28e5 | inactive |
| Dscam2 (GeneID 38788) | DRSC08869 | – | – | 4894 | 2.64e5 | inactive |
| Dscam2 (GeneID 38788) | DRSC10198 | – | – | 6684 | 4.28e5 | inactive |
| Dscam2 (GeneID 38788) | DRSC11018 | – | – | 5952 | 4.85e5 | inactive |
| Dscam2 (GeneID 38788) | DRSC11019 | – | – | 6696 | 4.27e5 | inactive |
| Dscam2 (GeneID 38788) | DRSC22526 | – | – | 3899 | 4.55e5 | inactive |
| CG14326 (GeneID 42120) | DRSC14805 | – | – | 8946 | 5.49e5 | inactive |
| MED21 (GeneID 3354977) | DRSC20932 | – | – | 5250 | 3.58e5 | inactive |
| Gdap1 (GeneID 38597) | DRSC10437 | – | – | 6258 | 3.51e5 | inactive |
| CG17036 (GeneID 34679) | DRSC02564 | – | – | 6771 | 3.95e5 | inactive |
| Paip1 (GeneID 36913) | DRSC07302 | – | – | 7204 | 2.37e5 | inactive |
| Blm (GeneID 41366) | DRSC16911 | – | – | 11938 | 4.45e5 | inactive |
| l(2)gd1 (GeneID 34543) | DRSC02773 | – | – | 5164 | 2.71e5 | inactive |
| RpL32 (GeneID 43573) | DRSC16835 | – | – | 5087 | 3.39e5 | inactive |
| pico (GeneID 33003) | DRSC19430 | – | – | 5219 | 3.57e5 | inactive |
| Ir48a (GeneID 3772197) | DRSC05301 | – | – | 5519 | 3.51e5 | inactive |
| Acsx1R (GeneID 42352) | DRSC14339 | – | – | 8323 | 3.60e5 | inactive |
| His3.3B (GeneID 31848) | DRSC17773 | – | – | 6263 | 5.13e5 | inactive |
| His3.3B (GeneID 31848) | DRSC18673 | – | – | 6356 | 6.25e5 | inactive |

Next part (9 carried over from the part before).
| target gene | dsRNA | stable siRNA reporter change | miRNA reporter change | stable assay Renilla, run 1 (luminescence) | stable assay firefly, run 1 (luminescence) | outcome |
| --- | --- | --- | --- | --- | --- | --- |
| Paip1 (GeneID 36913) | DRSC07302 | – | – | 7204 | 2.37e5 | inactive |
| Blm (GeneID 41366) | DRSC16911 | – | – | 11938 | 4.45e5 | inactive |
| l(2)gd1 (GeneID 34543) | DRSC02773 | – | – | 5164 | 2.71e5 | inactive |
| RpL32 (GeneID 43573) | DRSC16835 | – | – | 5087 | 3.39e5 | inactive |
| pico (GeneID 33003) | DRSC19430 | – | – | 5219 | 3.57e5 | inactive |
| Ir48a (GeneID 3772197) | DRSC05301 | – | – | 5519 | 3.51e5 | inactive |
| Acsx1R (GeneID 42352) | DRSC14339 | – | – | 8323 | 3.60e5 | inactive |
| His3.3B (GeneID 31848) | DRSC17773 | – | – | 6263 | 5.13e5 | inactive |
| His3.3B (GeneID 31848) | DRSC18673 | – | – | 6356 | 6.25e5 | inactive |
| B-H2 (GeneID 32723) | DRSC19335 | – | – | 4432 | 2.91e5 | inactive |
| B-H2 (GeneID 32723) | DRSC23012 | – | – | 4556 | 3.53e5 | inactive |
| CG43896 (GeneID 39360) | DRSC10754 | – | – | 6274 | 4.04e5 | inactive |
| PTP-ER (GeneID 37461) | DRSC04636 | – | – | 9255 | 1.40e6 | inactive |
| PTP-ER (GeneID 37461) | DRSC23325 | – | reporter ratio raised past the hit cutoff | 9171 | 5.47e5 | active |
| CG10669 (GeneID 43069) | DRSC14261 | – | – | 7415 | 3.98e5 | inactive |
| CG31949 (GeneID 319042) | DRSC00110 | – | – | 6026 | 3.75e5 | inactive |
| CG3156 (GeneID 30994) | DRSC18503 | – | – | 8578 | 5.14e5 | inactive |
| cona (GeneID 42213) | DRSC16281 | – | – | 6995 | 2.89e5 | inactive |
| CG13272 (GeneID 35013) | DRSC02249 | – | – | 7398 | 3.52e5 | inactive |
| CG13272 (GeneID 35013) | DRSC22910 | – | – | 2295 | 2.54e5 | inactive |
| CG32512 (GeneID 33085) | DRSC20519 | – | – | 4503 | 2.66e5 | inactive |
| CG32512 (GeneID 33085) | DRSC20551 | – | – | 5907 | 2.89e5 | inactive |
| CG32512 (GeneID 33085) | DRSC21401 | – | – | 8983 | 3.98e5 | inactive |
| CG34109 (GeneID 4379890) | DRSC02169 | – | – | 6783 | 3.44e5 | inactive |
| CG34109 (GeneID 4379890) | DRSC02224 | – | – | 7139 | 3.31e5 | inactive |
| CG34109 (GeneID 4379890) | DRSC02225 | – | – | 6368 | 3.81e5 | inactive |
| Or10a (GeneID 32086) | DRSC20264 | – | – | 4459 | 4.47e5 | inactive |
| Pgant1 (GeneID 36717) | DRSC07095 | – | – | 6850 | 4.52e5 | inactive |
| CycD (GeneID 32551) | DRSC20233 | – | – | 3631 | 3.42e5 | inactive |
| CG34265 (GeneID 5740186) | DRSC08030 | – | – | 5855 | 5.51e5 | inactive |
| Elp1 (GeneID 41399) | DRSC14250 | – | – | 8282 | 4.89e5 | inactive |
| CG14545 (GeneID 50075) | DRSC14889 | – | – | 7102 | 3.58e5 | inactive |
| Mur18B (GeneID 32912) | DRSC20063 | – | – | 6818 | 3.88e5 | inactive |
| GluRIIB (GeneID 33789) | DRSC03335 | – | – | 6735 | 3.38e5 | inactive |
| Npc2a (GeneID 33374) | DRSC00698 | – | – | 7751 | 5.45e5 | inactive |
| Fem-1 (GeneID 37344) | DRSC07322 | – | – | 6398 | 3.08e5 | inactive |
| CG31815 (GeneID 318959) | DRSC01548 | – | – | 5032 | 4.12e5 | inactive |
| CG31076 (GeneID 318582) | DRSC16017 | – | – | 8301 | 4.06e5 | inactive |
| Prosalpha3 (GeneID 37378) | DRSC04644 | – | – | 8175 | 3.18e5 | inactive |
| Sys1 (GeneID 41023) | DRSC14372 | – | – | 6872 | 4.35e5 | inactive |
| Vps51 (GeneID 37156) | DRSC06519 | – | – | 9921 | 2.70e5 | inactive |
| bin (GeneID 38766) | DRSC10332 | – | – | 6915 | 3.86e5 | inactive |
| ifc (GeneID 33836) | DRSC03549 | – | – | 58875 | 2.33e5 | inactive |
| Ppn (GeneID 43872) | DRSC15328 | – | – | 6806 | 4.31e5 | inactive |
| CG15237 (GeneID 35591) | DRSC04971 | – | – | 6415 | 4.76e5 | inactive |
| Prx6c + CG12896 + Prx6b | DRSC06148 | – | – | 5439 | 3.01e5 | inactive |
| Prx6c + CG12896 + Prx6b | DRSC28111 | – | reporter ratio lowered past the hit cutoff | – | – | inactive |
| CG42514 (GeneID 8674108) | DRSC10428 | reporter ratio lowered past the hit cutoff | – | 8124 | 5.64e5 | inactive |
| CG10657 (GeneID 39423) | DRSC09768 | – | – | 4691 | 3.92e5 | inactive |
| CG7367 (GeneID 34094) | DRSC03049 | – | – | 8326 | 4.93e5 | inactive |
| Dbp21E2 (GeneID 33254) | DRSC00616 | – | – | 20321 | 2.50e5 | inactive |
| CG15461 (GeneID 50122) | DRSC20532 | – | – | 6150 | 4.19e5 | inactive |
| lncRNA:CR32658 (GeneID 3772624) | DRSC19402 | – | – | 4344 | 3.56e5 | inactive |
| CG8306 (GeneID 36857) | DRSC07141 | – | – | 8718 | 3.35e5 | inactive |
| Ptp61F (GeneID 38160) | DRSC08683 | – | – | 8972 | 4.52e5 | inactive |
| Cyp6a19 (GeneID 36662) | DRSC07379 | – | – | 8821 | 4.41e5 | inactive |
| CG31337 (GeneID 318688) | DRSC12981 | – | – | 4563 | 3.64e5 | inactive |
| brn (GeneID 31358) | DRSC18746 | – | – | 8936 | 5.84e5 | inactive |
| TFAM (GeneID 42433) | DRSC15552 | – | – | 7487 | 3.67e5 | inactive |
| resilin (GeneID 36880) | DRSC05627 | – | – | 7091 | 4.19e5 | inactive |
| resilin (GeneID 36880) | DRSC06595 | – | – | 6462 | 3.68e5 | inactive |
| Nup205 (GeneID 33002) | DRSC19432 | – | – | 9234 | 3.97e5 | inactive |
| CG31454 (GeneID 318744) | DRSC14365 | – | – | 5343 | 4.04e5 | inactive |
| CG31454 (GeneID 318744) | DRSC22801 | – | – | 3211 | 3.00e5 | inactive |
